Test [1] deals with T1, FLAG-ULK1 D1038-1051 (UniProt O70405).
T1 sequence: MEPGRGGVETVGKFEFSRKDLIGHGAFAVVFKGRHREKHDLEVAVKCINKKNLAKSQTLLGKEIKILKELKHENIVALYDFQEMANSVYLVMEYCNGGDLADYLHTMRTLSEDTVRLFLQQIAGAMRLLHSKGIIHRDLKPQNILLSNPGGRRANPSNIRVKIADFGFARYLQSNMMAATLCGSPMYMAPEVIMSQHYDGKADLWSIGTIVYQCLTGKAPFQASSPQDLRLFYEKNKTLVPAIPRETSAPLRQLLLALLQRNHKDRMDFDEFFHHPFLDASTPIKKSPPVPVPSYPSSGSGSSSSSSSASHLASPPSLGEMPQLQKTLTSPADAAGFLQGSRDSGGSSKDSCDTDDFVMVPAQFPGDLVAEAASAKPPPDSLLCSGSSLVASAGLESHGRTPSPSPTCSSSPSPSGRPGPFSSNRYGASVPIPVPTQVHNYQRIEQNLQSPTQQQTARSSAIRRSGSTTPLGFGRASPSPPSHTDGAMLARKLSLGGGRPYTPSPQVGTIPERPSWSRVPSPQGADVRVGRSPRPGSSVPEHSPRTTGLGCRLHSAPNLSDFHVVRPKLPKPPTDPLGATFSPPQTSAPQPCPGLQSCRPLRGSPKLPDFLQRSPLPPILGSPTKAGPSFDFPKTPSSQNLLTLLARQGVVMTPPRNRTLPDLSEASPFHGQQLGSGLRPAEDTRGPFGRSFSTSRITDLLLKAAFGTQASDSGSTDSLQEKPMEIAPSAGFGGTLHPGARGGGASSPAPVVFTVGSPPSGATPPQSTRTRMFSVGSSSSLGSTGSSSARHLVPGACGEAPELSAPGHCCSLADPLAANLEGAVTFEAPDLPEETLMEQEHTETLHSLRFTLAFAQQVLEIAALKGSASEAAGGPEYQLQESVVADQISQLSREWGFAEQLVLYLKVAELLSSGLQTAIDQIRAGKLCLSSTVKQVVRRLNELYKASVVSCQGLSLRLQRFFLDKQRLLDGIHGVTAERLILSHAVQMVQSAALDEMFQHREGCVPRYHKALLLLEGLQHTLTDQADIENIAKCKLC
In words: co-IP; FLAG-ULK1 forms and HA-BNIP3 co-expressed in HEK-293 T cells; FLAG-tagged proteins immunoprecipitated on anti-FLAG M2 magnetic beads (NP-40 IP lysis buffer), 1 h at 4 °C; BNIP3 detected by blot.

Test [2] deals with T2, FLAG-ULK1 (full-length) (UniProt O70405).
T2 sequence: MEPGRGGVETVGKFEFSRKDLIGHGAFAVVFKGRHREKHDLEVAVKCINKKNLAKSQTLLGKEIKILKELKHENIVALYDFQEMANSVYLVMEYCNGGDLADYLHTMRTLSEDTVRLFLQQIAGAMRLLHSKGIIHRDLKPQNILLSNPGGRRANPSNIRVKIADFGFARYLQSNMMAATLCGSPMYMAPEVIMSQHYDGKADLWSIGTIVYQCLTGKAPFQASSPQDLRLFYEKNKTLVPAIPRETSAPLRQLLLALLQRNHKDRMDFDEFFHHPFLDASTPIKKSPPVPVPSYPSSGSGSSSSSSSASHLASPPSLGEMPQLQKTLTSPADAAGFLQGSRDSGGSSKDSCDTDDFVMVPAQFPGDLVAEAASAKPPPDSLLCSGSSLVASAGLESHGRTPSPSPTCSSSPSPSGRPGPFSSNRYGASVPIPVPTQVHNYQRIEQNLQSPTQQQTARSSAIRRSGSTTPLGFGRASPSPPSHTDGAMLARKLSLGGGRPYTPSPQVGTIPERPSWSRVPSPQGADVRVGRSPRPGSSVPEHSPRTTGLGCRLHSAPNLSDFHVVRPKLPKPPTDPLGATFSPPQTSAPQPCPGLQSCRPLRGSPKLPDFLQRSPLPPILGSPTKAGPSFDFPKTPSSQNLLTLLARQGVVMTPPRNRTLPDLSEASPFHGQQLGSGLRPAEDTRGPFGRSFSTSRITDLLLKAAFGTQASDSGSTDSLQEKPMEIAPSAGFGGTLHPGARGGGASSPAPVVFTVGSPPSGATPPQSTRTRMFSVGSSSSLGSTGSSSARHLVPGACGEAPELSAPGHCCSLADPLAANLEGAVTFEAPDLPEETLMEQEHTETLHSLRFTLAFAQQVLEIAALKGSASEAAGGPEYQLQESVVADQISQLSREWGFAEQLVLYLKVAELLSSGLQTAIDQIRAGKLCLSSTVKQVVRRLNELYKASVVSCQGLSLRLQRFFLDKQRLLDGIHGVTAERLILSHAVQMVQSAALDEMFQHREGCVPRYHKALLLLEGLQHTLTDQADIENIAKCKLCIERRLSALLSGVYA
The test is described as above.

These are yes or no findings as the source states them, for the method shown. In cells and extracts the contact can be indirect. Binding calls can cover weak binding; strength is not graded here. Where a sequence is shown, tags or fusion partners need not be part of it.

Binding data for one substance are collected here from publication PMC8519931.

HA-BNIP3 (WT): the binding result in test [1] and in test [2] was “binds” each time.
